In the assay the target is Connexin 31.1-EGFP (UniProt O95377). The assay is described as follows: affinity purification with mass spectrometry; lysates of Cx31.1-EGFP-H1299 cells (control: H1299 cells stably expressing EGFP) immunoprecipitated with polyclonal anti-GFP and protein A/G PLUS-Agarose; buffer 50 mM Tris-HCl pH 7.4, 150 mM NaCl, 1% NP-40, 0.25% sodium deoxycholate, 1 mM EDTA; 4°C; SDS-PAGE, silver stain, bands absent from the control excised, HPLC-MS/MS; repeated three times.

By UniProt entry, the sequences of proteins in these tests, tags left out.
UniProt O95377: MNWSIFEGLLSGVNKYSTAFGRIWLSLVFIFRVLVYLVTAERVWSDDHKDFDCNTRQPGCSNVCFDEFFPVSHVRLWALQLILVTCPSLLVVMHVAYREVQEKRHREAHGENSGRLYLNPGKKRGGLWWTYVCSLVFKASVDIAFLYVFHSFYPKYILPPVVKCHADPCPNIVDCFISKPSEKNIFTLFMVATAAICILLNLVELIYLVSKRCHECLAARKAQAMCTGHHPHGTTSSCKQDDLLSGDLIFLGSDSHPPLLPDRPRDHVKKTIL
UniProt Q00610: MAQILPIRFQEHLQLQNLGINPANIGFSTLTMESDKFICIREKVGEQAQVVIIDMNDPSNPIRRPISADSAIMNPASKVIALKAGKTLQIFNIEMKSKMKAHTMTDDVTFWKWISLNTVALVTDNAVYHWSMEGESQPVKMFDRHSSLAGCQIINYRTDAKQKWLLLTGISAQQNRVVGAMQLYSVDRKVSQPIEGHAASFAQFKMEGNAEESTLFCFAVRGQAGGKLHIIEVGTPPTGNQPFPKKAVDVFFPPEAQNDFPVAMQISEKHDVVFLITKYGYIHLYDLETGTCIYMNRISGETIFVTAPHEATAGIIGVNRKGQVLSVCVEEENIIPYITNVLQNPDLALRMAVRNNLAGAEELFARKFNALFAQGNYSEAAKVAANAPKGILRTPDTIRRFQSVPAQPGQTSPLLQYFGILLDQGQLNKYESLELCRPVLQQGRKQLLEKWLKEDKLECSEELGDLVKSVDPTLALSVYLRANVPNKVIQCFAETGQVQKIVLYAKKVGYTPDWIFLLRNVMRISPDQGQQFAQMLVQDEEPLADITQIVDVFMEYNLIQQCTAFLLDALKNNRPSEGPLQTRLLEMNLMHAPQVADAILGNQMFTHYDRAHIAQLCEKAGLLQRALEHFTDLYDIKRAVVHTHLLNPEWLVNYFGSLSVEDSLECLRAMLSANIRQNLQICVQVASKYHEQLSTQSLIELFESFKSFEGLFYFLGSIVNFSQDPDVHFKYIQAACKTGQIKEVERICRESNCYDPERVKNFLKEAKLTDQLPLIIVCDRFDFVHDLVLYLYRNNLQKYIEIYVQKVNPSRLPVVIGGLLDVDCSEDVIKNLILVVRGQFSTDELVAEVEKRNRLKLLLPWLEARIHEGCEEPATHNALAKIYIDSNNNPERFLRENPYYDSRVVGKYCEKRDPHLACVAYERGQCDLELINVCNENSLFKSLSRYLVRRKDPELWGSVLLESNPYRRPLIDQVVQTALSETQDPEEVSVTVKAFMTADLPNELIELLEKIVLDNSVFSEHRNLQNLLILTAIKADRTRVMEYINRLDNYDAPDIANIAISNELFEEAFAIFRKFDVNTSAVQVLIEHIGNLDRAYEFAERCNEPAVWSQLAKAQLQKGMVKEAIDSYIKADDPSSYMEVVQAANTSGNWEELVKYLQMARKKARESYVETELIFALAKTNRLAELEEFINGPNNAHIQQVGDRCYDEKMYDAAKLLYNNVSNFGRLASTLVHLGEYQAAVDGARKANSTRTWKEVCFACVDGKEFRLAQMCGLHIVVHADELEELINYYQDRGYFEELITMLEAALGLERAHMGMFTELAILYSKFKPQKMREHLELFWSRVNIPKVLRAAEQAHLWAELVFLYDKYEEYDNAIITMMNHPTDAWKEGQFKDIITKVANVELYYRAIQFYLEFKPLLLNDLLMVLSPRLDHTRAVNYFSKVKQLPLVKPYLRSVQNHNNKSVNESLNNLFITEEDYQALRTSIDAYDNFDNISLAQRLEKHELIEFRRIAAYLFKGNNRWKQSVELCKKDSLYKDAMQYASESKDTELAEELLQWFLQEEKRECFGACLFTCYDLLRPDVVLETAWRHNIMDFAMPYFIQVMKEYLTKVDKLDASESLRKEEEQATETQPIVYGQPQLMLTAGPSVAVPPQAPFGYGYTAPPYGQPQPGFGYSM

No constants are given. Whether binding was seen depends on the method and setting. Binding seen in cells or lysates may run through a third protein. Here binding means that the protein was enriched with, or labelled near, the bait; the list need not be complete.

With “clathrin heavy chain (from UniProt Q00610 1-1675)”, the binding result was “binds”.

Source of the values: publication PMC4288368.
